From PMC4176167, “Solution structure and intramolecular exchange of methyl-cytosine binding domain protein 4 (MBD4) on DNA suggests a mechanism to scan for mCpG/TpG mismatches”
No constants are given. Whether binding was seen depends on the method and setting.

Sequences of proteins named here, by UniProt entry; tags and fusion partners are left off. Residues count along the entry.
UniProt O95243, residues 80-148: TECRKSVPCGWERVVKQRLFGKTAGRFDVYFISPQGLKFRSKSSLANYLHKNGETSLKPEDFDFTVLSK

Molecular target: methyl-cytosine binding domain of human MBD4 (amino acids 80-148) (human) (UniProt O95243)
Test: NMR residual dipolar couplings; 2H,13C,15N-labelled MBD4MBD with 10% excess dsDNA, 10 mM NaPO4 pH 6.5, 1 mM DTT, 25 C, aligned with ~12 mg/ml pf1 bacteriophage; couplings fitted (PALES) to the crystal structure of mouse MBD4MBD bound to methylated DNA; both purified

## methyl-cytosine binding domain of human MBD4 (amino acids 80-148) (from UniProt O95243 80-148) (domain or fragment)
  binding: no binding (tested: 0.2–1 mM)
